In the supplement of paper PMC6411743:
± gives the standard deviation of the averaged measurements. This is a selection; strong and weak results do not stand in their true shares. Most values lie at the level of the controls, where differences are scatter.

The chains behind the UniProt entries cited, without tags or fusion partners. Where a name states a change or a piece, a line headed by the entry shows the natural chain unless it says otherwise.
UniProt Q6ZU35: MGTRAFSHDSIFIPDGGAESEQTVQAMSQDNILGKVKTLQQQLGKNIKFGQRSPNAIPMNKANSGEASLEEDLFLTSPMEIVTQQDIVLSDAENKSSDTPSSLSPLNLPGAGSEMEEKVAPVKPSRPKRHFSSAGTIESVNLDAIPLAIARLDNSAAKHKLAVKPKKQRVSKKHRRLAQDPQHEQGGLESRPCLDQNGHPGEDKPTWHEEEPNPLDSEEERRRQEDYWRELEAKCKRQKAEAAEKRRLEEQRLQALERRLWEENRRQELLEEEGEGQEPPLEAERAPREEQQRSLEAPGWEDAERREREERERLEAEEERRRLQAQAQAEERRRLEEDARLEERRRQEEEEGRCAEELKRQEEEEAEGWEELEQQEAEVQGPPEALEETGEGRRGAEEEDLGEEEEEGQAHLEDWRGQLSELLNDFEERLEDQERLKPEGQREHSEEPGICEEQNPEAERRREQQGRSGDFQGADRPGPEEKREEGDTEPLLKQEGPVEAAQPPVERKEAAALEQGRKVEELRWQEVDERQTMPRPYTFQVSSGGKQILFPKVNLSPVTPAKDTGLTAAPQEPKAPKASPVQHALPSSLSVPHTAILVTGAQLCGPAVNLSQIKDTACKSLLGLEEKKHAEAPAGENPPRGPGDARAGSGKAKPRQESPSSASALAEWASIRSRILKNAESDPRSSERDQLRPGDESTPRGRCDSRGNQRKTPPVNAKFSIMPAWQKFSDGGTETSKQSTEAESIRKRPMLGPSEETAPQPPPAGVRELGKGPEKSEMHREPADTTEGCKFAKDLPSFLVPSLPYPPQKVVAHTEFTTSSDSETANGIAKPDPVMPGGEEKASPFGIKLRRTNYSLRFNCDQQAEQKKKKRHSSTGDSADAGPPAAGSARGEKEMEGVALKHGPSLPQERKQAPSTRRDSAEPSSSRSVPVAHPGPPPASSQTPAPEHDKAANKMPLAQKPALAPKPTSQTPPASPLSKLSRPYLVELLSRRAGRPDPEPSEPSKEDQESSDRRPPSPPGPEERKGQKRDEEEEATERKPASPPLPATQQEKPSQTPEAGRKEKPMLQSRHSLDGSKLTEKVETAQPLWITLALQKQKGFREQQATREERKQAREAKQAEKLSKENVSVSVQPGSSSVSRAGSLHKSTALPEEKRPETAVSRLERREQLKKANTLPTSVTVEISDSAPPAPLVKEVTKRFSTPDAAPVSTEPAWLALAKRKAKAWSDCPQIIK
UniProt O75122: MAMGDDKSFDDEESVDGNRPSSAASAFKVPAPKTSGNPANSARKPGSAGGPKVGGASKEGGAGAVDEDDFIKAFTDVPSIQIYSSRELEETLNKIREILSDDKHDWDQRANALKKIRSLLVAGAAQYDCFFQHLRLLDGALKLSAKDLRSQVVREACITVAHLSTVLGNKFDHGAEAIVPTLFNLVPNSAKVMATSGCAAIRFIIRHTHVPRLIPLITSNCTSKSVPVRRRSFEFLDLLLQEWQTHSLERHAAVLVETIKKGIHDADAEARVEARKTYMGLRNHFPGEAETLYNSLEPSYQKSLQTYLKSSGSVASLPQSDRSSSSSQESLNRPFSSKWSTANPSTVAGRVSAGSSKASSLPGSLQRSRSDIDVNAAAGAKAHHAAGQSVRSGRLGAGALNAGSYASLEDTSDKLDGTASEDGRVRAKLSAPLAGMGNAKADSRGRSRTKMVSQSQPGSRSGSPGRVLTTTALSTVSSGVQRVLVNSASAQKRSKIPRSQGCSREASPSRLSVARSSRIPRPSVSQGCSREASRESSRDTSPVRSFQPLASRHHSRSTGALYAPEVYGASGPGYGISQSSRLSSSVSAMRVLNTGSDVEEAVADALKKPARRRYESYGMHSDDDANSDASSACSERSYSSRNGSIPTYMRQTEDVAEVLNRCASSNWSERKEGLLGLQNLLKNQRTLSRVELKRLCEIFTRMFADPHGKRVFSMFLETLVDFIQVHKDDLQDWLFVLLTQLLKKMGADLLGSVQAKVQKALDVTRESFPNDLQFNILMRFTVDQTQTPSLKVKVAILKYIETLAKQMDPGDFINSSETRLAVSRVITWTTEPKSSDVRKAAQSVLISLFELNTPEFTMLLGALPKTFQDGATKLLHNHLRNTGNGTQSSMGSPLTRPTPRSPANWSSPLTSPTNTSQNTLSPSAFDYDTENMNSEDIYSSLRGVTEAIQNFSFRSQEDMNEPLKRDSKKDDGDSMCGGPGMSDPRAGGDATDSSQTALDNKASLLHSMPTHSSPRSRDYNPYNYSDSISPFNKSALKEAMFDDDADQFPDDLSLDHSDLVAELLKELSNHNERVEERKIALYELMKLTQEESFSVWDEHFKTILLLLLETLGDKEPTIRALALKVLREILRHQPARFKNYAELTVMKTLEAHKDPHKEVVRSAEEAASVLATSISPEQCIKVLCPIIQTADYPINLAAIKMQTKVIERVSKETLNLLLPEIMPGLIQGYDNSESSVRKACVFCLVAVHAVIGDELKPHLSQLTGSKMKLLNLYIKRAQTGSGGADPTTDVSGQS
UniProt Q9Y6C9: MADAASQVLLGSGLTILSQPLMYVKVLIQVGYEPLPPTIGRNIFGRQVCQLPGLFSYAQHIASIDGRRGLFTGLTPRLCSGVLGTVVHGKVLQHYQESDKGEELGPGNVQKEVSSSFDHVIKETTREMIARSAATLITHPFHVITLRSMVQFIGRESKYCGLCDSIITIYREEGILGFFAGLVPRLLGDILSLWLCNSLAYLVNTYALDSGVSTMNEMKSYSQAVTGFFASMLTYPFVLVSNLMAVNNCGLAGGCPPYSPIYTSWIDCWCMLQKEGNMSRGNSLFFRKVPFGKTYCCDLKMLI
UniProt P25208: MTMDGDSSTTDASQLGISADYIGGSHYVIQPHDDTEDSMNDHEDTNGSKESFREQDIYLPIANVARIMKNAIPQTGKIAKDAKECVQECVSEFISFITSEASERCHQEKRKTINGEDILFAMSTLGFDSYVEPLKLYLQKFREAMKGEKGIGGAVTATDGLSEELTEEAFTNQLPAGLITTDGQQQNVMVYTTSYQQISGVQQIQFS
UniProt Q13155: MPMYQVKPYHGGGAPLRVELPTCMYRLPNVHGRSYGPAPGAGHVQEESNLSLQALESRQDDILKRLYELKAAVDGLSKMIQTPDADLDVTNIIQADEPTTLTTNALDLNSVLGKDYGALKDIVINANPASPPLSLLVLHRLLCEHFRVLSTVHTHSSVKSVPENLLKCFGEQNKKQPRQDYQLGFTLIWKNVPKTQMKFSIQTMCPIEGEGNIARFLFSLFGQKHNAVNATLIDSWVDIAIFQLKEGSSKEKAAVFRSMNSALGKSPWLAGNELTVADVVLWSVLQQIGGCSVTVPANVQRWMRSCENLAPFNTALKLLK
UniProt Q8N3A8: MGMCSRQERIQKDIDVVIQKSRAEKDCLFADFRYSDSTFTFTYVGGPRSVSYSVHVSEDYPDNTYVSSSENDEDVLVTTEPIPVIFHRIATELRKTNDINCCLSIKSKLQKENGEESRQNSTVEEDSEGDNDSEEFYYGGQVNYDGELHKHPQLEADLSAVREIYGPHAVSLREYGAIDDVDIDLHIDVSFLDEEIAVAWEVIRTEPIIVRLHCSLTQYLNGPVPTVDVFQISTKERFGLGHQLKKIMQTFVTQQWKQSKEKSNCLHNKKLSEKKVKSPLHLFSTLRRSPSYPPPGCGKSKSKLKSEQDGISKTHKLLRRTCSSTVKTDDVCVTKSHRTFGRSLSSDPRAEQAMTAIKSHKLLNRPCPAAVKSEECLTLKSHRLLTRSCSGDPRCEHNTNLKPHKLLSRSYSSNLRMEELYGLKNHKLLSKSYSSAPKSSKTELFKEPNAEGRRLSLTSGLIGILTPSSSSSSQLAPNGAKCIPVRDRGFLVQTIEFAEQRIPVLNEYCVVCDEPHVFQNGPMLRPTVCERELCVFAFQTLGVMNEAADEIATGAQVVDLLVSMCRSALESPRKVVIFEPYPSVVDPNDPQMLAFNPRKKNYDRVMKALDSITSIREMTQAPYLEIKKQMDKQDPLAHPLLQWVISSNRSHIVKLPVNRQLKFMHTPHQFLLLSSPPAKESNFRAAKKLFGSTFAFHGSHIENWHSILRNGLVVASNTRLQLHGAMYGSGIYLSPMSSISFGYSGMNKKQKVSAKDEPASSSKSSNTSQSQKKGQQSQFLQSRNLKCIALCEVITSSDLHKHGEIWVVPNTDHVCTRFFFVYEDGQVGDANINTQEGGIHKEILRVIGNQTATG
UniProt Q96C57: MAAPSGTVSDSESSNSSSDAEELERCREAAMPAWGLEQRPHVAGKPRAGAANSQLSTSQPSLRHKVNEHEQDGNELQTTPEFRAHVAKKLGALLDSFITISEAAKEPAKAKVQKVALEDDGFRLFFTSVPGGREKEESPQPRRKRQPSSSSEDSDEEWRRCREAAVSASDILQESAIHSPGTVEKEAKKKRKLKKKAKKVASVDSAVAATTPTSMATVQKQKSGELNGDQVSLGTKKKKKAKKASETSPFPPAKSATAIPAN
UniProt P08195: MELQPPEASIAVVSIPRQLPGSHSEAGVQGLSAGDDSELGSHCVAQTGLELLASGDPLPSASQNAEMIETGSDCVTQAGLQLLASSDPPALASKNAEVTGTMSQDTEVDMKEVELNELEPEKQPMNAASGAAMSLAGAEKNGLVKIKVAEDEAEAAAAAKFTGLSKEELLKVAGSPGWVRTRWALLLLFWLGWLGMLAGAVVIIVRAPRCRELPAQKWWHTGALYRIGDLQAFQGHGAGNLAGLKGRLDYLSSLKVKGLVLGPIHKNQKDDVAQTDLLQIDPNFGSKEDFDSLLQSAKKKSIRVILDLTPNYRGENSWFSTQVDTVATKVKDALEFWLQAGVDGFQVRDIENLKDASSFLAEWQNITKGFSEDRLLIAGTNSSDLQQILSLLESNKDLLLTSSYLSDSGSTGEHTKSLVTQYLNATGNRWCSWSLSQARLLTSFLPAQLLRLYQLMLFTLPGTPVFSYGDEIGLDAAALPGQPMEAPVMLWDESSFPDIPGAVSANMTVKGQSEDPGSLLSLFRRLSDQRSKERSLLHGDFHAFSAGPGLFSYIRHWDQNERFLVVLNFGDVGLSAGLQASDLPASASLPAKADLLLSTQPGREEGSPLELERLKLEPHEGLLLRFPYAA
UniProt O15182: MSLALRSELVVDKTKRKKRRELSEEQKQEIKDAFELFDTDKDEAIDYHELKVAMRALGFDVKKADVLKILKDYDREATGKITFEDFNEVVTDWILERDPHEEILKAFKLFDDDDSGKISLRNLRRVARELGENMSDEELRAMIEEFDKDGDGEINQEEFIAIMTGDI
UniProt Q9NYF8, whole entry: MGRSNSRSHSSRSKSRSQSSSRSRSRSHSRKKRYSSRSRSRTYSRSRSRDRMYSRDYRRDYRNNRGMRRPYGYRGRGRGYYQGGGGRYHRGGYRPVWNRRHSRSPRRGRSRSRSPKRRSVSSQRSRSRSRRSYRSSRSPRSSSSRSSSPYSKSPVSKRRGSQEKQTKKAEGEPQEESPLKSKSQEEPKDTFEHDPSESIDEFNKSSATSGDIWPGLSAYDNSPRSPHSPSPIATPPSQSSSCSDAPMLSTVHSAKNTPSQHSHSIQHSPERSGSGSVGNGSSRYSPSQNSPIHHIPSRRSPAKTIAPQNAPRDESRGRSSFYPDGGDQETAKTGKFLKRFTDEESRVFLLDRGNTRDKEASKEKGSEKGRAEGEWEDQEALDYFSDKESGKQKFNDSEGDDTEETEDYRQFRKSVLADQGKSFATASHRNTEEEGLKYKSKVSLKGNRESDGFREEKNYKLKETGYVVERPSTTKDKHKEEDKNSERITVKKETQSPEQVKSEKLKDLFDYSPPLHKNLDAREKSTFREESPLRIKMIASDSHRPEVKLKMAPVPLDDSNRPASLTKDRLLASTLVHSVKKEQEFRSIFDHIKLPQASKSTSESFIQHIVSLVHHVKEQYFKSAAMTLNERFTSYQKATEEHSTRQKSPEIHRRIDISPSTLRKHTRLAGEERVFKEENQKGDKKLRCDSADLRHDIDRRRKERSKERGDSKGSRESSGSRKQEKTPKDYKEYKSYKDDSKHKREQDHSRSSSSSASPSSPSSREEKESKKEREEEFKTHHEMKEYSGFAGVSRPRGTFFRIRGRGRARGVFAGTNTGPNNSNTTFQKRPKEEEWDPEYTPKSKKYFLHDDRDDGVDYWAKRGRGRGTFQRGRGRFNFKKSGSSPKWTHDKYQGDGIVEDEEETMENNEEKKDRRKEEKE
UniProt Q9GZN1, whole entry: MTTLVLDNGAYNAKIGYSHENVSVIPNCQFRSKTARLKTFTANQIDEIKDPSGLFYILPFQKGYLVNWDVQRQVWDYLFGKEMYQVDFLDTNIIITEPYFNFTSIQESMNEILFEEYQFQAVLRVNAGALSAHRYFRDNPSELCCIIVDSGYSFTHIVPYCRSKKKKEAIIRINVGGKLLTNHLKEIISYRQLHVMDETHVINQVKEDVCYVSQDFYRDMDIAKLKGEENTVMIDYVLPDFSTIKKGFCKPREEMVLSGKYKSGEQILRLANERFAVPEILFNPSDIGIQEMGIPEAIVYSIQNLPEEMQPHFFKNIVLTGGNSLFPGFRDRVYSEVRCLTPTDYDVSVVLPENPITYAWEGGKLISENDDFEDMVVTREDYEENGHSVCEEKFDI

Compound: Nc1ncnc2c1ncn2[C@@H]1O[C@H](COP(=O)(O)OP(=O)(O)OP(=O)(O)O)[C@@H](O)[C@H]1O [adenosine triphosphate]
Experiment: NP40-soluble protein abundance relative to vehicle (solubility fold change) (ratio); higher = more soluble protein in presence of ATP
Procedure, shortened: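 Jurkat crude lysate prepared with a Dounce homogeniser was treated at eight concentrations spanning 0.1 to 10 mM, 10 min at room temperature then 3 min at 37 °C. Solubilisation with 0.8% NP40 and benzonase and ultracentrifugation preceded TMT labelling of the supernatant for LC-MS/MS. Fold change against the detergent-processed vehicle was determined per replicate from vsn-normalised intensities, across three independent experiments.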

Row | Target | NP40-soluble protein abundance (concentration: 0.1mM) | NP40-soluble protein abundance (concentration: 0.5mM) | NP40-soluble protein abundance (concentration: 1mM) | NP40-soluble protein abundance (concentration: 2mM) | NP40-soluble protein abundance (concentration: 4mM) | NP40-soluble protein abundance (concentration: 6mM) | NP40-soluble protein abundance (concentration: 8mM) | NP40-soluble protein abundance (concentration: 10mM)
1 | E7ERY8 and related entries (UniProt O15014) | 1.027 ± 0.0035 | 1.02 ± 0.045 |  |  |  |  |  | 
2 | G3V4T2 and related entries (UniProt Q86U42) | 0.939 ± 0.014 | 0.961 ± 0.064 |  |  |  |  |  | 
3 | E9PIC6 and related entries (UniProt P06746) | 1.04 ± 0.048 | 1.11 ± 0.077 |  |  |  |  |  | 
4 | F5H1N7 and related entries (UniProt Q6ZU35) | 0.886 ± 0.046 | 0.931 ± 0.056 |  |  |  |  |  | 
5 | F8VU11 and related entries (UniProt Q6NWY9) | 0.885 ± 0.042 | 0.992 ± 0.044 |  |  |  |  |  | 
6 | E3W994 and related entries (UniProt O75122) | 0.997 ± 0.045 | 1.13 ± 0.061 |  |  |  |  |  | 
7 | E9PIE4 and related entries (UniProt Q9Y6C9) | 1.04 ± 0.036 | 1 ± 0.071 |  |  |  |  |  | 
8 | F8VSL3 and related entries (UniProt P25208) | 1.03 ± 0.056 | 0.962 ± 0.06 |  |  |  |  |  | 
9 | F8W950 and related entries (UniProt Q13155) | 0.968 ± 0.054 | 0.983 ± 0.052 |  |  |  |  |  | 
10 | E9PFI7 and related entries (UniProt Q8N3A8) | 1.03 ± 0.11 | 1.1 ± 0.18 |  |  |  |  |  | 
11 | F5H7W8 and related entries (UniProt Q96C57) | 0.953 ± 0.095 | 0.992 ± 0.079 |  |  |  |  |  | 
12 | G5E9A6 (UniProt P51784) | 1.08 ± 0.087 | 1.07 ± 0.083 |  |  |  |  |  | 
13 | F5GZS6 and related entries (UniProt P08195) | 0.949 ± 0.032 | 0.932 ± 0.011 |  |  |  |  |  | 
14 | E5RIM7 and related entries (UniProt O00244) | 0.853 ± 0.12 | 0.864 ± 0.2 |  |  |  |  |  | 
15 | E9PJK5 and related entries (UniProt Q8N612) | 1.21 ± 0.23 | 0.958 ± 0.055 |  |  |  |  |  | 
16 | E9PK61 and related entries (UniProt O14681) | 1.03 ± 0.039 | 1.01 ± 0.061 |  |  |  |  |  | 
17 | E9PQY3 and related entries (UniProt P11117) | 0.97 ± 0.029 | 0.968 ± 0.17 |  |  |  |  |  | 
18 | G3V1M0 and related entries (UniProt Q9Y5A6) | 1.01 ± 0.096 | 1.08 ± 0.085 |  |  |  |  |  | 
19 | F6S8M0 and related entries (UniProt P15586) | 0.909 ± 0.054 | 0.904 ± 0.083 |  |  |  |  |  | 

Row | Target | NP40-soluble protein abundance (concentration: 0.1mM) | NP40-soluble protein abundance (concentration: 0.5mM) | NP40-soluble protein abundance (concentration: 1mM) | NP40-soluble protein abundance (concentration: 2mM) | NP40-soluble protein abundance (concentration: 4mM) | NP40-soluble protein abundance (concentration: 6mM) | NP40-soluble protein abundance (concentration: 8mM) | NP40-soluble protein abundance (concentration: 10mM)
20 | E5RJF8 and related entries (UniProt O15182) | 0.901 ± 0.058 | 0.946 ± 0.11 |  |  |  |  |  | 
21 | F5H702 and related entries (UniProt Q96GC5) | 0.996 ± 0.048 | 1.04 ± 0.062 |  |  |  |  |  | 
22 | E7EX59 and related entries (UniProt P05166) | 1 ± 0.019 | 1.03 ± 0.025 | 0.992 ± 0.049 | 0.971 ± 0.02 | 0.968 ± 0.012 | 0.973 ± 0.046 | 0.998 ± 0.033 | 0.979 ± 0.03
23 | F8WCD0 and related entries (UniProt Q8NC42) | 1.04 ± 0.057 | 1.02 ± 0.14 | 0.964 ± 0.023 | 0.992 ± 0.013 | 1.08 ± 0.076 | 1.03 ± 0.029 | 0.945 ± 0.021 | 1 ± 0.076
24 | E9PLK3 and related entries (UniProt P55786) | 1.05 ± 0.09 | 1.05 ± 0.086 | 1.02 ± 0.12 | 0.997 ± 0.09 | 0.976 ± 0.065 | 0.927 ± 0.13 | 0.999 ± 0.073 | 0.974 ± 0.057
25 | F5GWA4 and related entries (UniProt Q9H3F6) | 1.1 ± 0.031 | 1.17 ± 0.049 |  |  |  |  |  | 
26 | E9PJA7 and related entries (UniProt Q9NYF8) | 1.03 ± 0.017 | 1.19 ± 0.032 | 1.31 ± 0.092 | 1.41 ± 0.056 | 1.54 ± 0.086 | 1.7 ± 0.11 | 1.65 ± 0.07 | 1.7 ± 0.06
27 | G3XAG1 and related entries (UniProt Q96ME7) | 1.05 ± 0.057 | 1.27 ± 0.052 | 1.34 ± 0.038 | 1.407 ± 0.0052 | 1.58 ± 0.019 | 1.71 ± 0.061 | 1.88 ± 0.046 | 2.06 ± 0.081
28 | E7EQI7 and related entries (UniProt Q12768) | 1.05 ± 0.061 | 1.07 ± 0.095 | 1.06 ± 0.1 | 1.06 ± 0.075 | 1.05 ± 0.076 | 0.962 ± 0.11 | 1.07 ± 0.068 | 1.02 ± 0.05
29 | G3XAC1 and related entries (UniProt Q9BXS9) | 0.964 ± 0.031 | 0.935 ± 0.07 | 0.909 ± 0.018 | 0.891 ± 0.037 | 0.918 ± 0.073 | 0.885 ± 0.022 | 0.867 ± 0.074 | 0.863 ± 0.071
30 | UniProt E9PSI1 | 1.01 ± 0.052 | 1.01 ± 0.015 | 0.9713 ± 0.0047 | 0.986 ± 0.015 | 0.981 ± 0.015 | 0.939 ± 0.037 | 0.958 ± 0.044 | 0.96 ± 0.04
31 | G0XQ39 and related entries (UniProt Q13586) | 1 ± 0.032 | 1.04 ± 0.047 |  |  |  |  |  | 
32 | D6RIF6 and related entries (UniProt Q9P270) | 0.938 ± 0.019 | 0.968 ± 0.021 |  |  |  |  |  | 
33 | E5RG17 and related entries (UniProt Q6P1N9) | 1 ± 0.032 | 1.03 ± 0.047 | 0.989 ± 0.02 | 0.974 ± 0.013 | 0.965 ± 0.02 | 0.963 ± 0.052 | 0.937 ± 0.019 | 0.968 ± 0.019
34 | E9PHG5 and related entries (UniProt Q6UW02) | 1.07 ± 0.19 | 1.1 ± 0.17 | 1.11 ± 0.13 | 1.02 ± 0.16 | 1.04 ± 0.13 | 1.02 ± 0.17 | 1.02 ± 0.1 | 0.993 ± 0.086
35 | E9PJI1 and related entries (UniProt Q92993) | 0.999 ± 0.073 | 1 ± 0.13 | 1.06 ± 0.12 | 0.959 ± 0.11 | 1.13 ± 0.17 | 1.1 ± 0.19 | 1.06 ± 0.21 | 1.13 ± 0.1
36 | F5GY05 and related entries (UniProt Q96EK7) | 1.01 ± 0.013 | 1.04 ± 0.044 | 1.03 ± 0.013 | 1.0493 ± 0.001 | 1.07 ± 0.017 | 1.06 ± 0.06 | 1.07 ± 0.02 | 1.08 ± 0.052
37 | F8W057 and related entries (UniProt Q9GZN1) | 1.02 ± 0.083 | 1.08 ± 0.063 | 1.07 ± 0.034 | 1.11 ± 0.034 | 1.1 ± 0.065 | 1.03 ± 0.089 | 1.2 ± 0.028 | 1.17 ± 0.089

Part of the list above, comma-delimited:
Row,Target,NP40-soluble protein abundance (concentration: 0.1mM),NP40-soluble protein abundance (concentration: 0.5mM),NP40-soluble protein abundance (concentration: 1mM),NP40-soluble protein abundance (concentration: 2mM),NP40-soluble protein abundance (concentration: 4mM),NP40-soluble protein abundance (concentration: 6mM),NP40-soluble protein abundance (concentration: 8mM),NP40-soluble protein abundance (concentration: 10mM)
24,E9PLK3 and related entries (UniProt P55786),1.05 ± 0.09,1.05 ± 0.086,1.02 ± 0.12,0.997 ± 0.09,0.976 ± 0.065,0.927 ± 0.13,0.999 ± 0.073,0.974 ± 0.057
25,F5GWA4 and related entries (UniProt Q9H3F6),1.1 ± 0.031,1.17 ± 0.049,,,,,,
